Source: publication doi:10.1101/2022.10.01.510479
These are yes or no findings as the source states them, for the method shown. Binding seen in cells or lysates may run through a third protein. Some entries that bind do so weakly or less than the wild type.

Chains of the proteins cited; added tags and fusions are not shown.
UniProt Q9BX84: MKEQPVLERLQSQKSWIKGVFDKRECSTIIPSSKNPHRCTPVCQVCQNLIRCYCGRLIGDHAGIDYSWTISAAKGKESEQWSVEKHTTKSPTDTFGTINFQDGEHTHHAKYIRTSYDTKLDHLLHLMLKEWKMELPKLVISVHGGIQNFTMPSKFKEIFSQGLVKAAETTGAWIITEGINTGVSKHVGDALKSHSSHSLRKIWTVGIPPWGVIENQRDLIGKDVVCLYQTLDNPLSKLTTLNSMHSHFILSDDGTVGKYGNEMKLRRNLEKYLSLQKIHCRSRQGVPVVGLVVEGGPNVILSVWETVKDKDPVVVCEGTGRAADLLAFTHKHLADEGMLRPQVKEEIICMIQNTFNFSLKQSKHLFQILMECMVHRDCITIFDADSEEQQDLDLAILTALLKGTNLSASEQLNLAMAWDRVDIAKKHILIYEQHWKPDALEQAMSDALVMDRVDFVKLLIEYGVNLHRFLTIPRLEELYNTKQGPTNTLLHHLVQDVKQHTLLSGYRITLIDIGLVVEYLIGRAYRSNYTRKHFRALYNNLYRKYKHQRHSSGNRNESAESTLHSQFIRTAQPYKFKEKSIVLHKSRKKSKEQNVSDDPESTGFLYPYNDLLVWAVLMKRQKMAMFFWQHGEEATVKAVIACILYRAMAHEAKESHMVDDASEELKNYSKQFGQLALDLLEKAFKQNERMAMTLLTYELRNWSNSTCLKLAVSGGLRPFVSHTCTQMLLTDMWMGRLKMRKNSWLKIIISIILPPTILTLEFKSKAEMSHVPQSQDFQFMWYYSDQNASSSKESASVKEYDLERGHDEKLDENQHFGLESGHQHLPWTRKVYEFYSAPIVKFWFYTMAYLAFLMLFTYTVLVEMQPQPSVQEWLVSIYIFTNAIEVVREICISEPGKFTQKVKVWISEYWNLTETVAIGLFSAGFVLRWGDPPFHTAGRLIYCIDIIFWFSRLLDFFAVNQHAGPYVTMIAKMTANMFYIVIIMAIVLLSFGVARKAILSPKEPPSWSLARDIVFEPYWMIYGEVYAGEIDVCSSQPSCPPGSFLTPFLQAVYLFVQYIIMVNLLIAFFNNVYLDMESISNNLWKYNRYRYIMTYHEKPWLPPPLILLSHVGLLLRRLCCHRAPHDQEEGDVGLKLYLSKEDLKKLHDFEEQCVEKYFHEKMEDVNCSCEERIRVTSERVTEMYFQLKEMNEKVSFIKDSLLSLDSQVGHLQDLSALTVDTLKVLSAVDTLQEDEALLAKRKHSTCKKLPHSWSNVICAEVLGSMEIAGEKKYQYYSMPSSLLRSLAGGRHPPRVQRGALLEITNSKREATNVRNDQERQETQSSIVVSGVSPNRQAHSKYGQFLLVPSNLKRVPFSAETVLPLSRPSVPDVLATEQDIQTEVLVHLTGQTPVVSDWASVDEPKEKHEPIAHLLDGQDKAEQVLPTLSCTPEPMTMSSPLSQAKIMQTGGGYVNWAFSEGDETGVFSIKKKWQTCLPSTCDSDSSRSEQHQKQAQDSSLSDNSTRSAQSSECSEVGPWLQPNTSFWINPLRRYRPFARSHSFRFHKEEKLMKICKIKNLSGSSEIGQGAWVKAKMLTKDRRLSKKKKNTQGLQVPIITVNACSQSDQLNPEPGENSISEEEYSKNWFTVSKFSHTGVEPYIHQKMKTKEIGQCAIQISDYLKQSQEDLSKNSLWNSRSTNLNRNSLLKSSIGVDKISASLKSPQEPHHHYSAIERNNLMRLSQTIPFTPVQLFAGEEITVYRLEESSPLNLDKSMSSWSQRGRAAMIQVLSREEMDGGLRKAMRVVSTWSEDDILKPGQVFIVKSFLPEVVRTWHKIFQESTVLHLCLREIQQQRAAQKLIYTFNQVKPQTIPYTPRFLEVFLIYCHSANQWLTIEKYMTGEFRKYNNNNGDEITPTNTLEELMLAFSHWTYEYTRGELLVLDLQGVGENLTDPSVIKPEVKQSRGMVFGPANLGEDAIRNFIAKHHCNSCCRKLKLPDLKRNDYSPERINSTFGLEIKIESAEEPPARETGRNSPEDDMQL

Target: T1, insulin receptor substrate 4 (IRS4) (human (endogenous in HEK293)) (UniProt O14654)
T1 sequence: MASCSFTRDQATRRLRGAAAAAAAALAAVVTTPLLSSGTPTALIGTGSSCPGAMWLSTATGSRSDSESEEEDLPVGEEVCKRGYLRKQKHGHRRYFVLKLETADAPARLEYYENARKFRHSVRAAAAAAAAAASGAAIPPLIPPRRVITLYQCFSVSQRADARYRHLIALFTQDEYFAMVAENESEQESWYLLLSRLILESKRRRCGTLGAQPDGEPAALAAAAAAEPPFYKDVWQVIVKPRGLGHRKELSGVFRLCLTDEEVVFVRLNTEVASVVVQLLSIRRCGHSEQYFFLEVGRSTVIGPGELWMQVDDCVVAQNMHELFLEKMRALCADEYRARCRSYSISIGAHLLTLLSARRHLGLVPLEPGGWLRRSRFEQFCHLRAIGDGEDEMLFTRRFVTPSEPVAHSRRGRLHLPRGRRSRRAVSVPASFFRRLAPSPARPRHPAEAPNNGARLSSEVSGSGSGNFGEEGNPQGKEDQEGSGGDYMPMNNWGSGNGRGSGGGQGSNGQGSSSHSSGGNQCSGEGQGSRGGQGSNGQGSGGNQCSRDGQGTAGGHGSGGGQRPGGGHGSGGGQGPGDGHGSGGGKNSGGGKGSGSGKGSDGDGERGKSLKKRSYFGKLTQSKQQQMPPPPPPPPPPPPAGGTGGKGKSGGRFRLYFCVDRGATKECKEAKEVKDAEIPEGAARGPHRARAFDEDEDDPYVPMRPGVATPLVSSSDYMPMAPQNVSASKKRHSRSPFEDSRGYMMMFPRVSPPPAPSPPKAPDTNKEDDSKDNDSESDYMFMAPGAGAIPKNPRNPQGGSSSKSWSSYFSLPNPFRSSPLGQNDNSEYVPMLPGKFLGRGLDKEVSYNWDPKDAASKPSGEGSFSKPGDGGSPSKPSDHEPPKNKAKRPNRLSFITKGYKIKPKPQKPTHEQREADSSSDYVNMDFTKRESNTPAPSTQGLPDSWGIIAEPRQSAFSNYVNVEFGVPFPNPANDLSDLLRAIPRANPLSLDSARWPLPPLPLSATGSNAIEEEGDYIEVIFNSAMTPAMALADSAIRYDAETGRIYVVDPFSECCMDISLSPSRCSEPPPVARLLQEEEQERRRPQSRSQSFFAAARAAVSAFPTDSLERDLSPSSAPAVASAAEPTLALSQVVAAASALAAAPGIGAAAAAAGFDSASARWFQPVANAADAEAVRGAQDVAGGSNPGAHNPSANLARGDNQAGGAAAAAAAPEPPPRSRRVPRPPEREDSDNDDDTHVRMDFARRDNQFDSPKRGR
Assay: co-IP

- binding: binds
Substance: TRPM6 (pcDNA pDEST53 TRPM6 plasmid) (from UniProt Q9BX84 1-2022)
